Experimental data as given in US20030162942A1.
No constants are given. Whether binding was seen depends on the method and setting. Some results given as binding are weak or reduced against the parent protein; the word gives no strength.

By UniProt entry, the sequences of proteins in these tests, tags left out. Residues count along the entry.
UniProt P00750, residues 36-562: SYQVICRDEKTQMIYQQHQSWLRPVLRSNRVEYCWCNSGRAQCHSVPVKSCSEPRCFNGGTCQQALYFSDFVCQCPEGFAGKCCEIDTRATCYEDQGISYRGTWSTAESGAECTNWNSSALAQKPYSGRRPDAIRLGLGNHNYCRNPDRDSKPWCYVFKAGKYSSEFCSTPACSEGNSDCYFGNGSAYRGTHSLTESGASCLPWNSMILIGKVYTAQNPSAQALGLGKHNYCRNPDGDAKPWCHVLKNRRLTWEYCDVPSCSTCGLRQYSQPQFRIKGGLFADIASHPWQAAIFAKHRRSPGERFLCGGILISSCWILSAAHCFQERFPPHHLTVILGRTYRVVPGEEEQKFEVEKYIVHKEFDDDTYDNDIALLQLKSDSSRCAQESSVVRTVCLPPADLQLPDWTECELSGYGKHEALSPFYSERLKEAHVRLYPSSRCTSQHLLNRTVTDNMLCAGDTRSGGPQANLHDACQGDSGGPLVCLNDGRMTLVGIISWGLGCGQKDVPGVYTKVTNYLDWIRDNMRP

What was measured:
[1] = biological target: recombinant human tissue-type plasminogen activator (tPA) (human) (UniProt P00750); assay: affinity chromatography, #109 on Emphaze Ultralink beads, 1 M NaCl in all buffers
[2] = biological target: recombinant human tissue-type plasminogen activator (tPA) (human) (UniProt P00750); assay: affinity chromatography, #109 on EAH Sepharose 4B, tPA added to human plasma standard

B1: CMTI analogue #109 (free polypeptide expressed in Pichia pastoris) (designed binder)
chain: RLCPKTDLGCMKDSDCLAECVCLEHGYCG
With B1 the binding [1] was “binds” and the binding [2] was “binds”.
